Where a name gives a salt, the structure may show the parent alone. The list shows a part of the results. Repeats in this data set agree poorly, so a single value says little.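 Triple-negative MDA-MB-231 breast cancer cells and their brain-metastatic MDA-MB-231BRM derivative each stably expressed empty vector, full-length GLI1 or truncated tGLI1. CellTiter-Blue measured viability at 48 h relative to 1% DMSO vehicle. Compounds reducing viability 20% more in tGLI1 cells than in vector and GLI1 cells counted as tGLI1-selective.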
Legend:
Assay in all cases: cell viability relative to vehicle (DMSO) control (fraction); higher = more viable cells (less growth inhibition)
Conditions in all cases: treatment time 48 h
[1] = tested on: MDA-MB-231 GLI1
[2] = tested on: MDA-MB-231 Vector
[3] = tested on: MDA-MB-231 tGLI1
[4] = tested on: MDA-MB-231BRM GLI1
[5] = tested on: MDA-MB-231BRM Vector
[6] = tested on: MDA-MB-231BRM tGLI1

Row | Structure (SMILES) | cell viability ([1]; 0.05 µM) | cell viability ([1]; 0.5 µM) | cell viability ([1]; 5 µM) | cell viability ([2]; 0.05 µM) | cell viability ([2]; 0.5 µM) | cell viability ([2]; 5 µM) | cell viability ([3]; 0.05 µM) | cell viability ([3]; 0.5 µM) | cell viability ([3]; 5 µM) | cell viability ([4]; 0.05 µM) | cell viability ([4]; 0.5 µM) | cell viability ([4]; 5 µM) | cell viability ([5]; 0.05 µM) | cell viability ([5]; 0.5 µM) | cell viability ([5]; 5 µM) | cell viability ([6]; 0.05 µM) | cell viability ([6]; 0.5 µM) | cell viability ([6]; 5 µM)
1 | C[C@@H]1CC[C@H]2[C@@H](C)C(=O)O[C@@H]3O[C@@]4(C)CC[C@@H]1[C@]32OO4 [Artemisinin] | 1.15 | 1.07 | 1.04 | 0.899 | 0.841 | 0.908 | 1.18 | 0.996 | 0.916 | 1.09 | 1.07 | 1.07 | 1.04 | 1.04 | 1.03 | 1.07 | 1.01 | 1.03
2 | C/C(O)=C(\C#N)C(=O)Nc1cc(Br)ccc1Br | 2.26 | 3.13 | 2.06 | 1.42 | 1.29 | 1.32 | 1.29 | 1.43 | 1.41 | 0.783 | 0.823 | 0.649 | 0.922 | 0.792 | 0.707 | 1.22 | 1.07 | 1.16
3 | COc1ccc(N(C(=O)Oc2c(C)cccc2C)c2ccnc(Nc3ccc(N4CCN(C)CC4)cc3)n2)c(OC)c1 | 2.19 | 2.9 | 0.0531 | 1.46 | 1.36 | 0.0126 | 1.47 | 1.43 | -0.113 | 0.819 | 0.835 | 0.554 | 0.86 | 0.814 | 0.641 | 1.13 | 1.01 | 0.92
4 | N.N.[Cl][Pt][Cl] [Cisplatin] | 1.31 | 1.02 | 1.11 | 1.32 | 1.1 | 1.21 | 1.25 | 1.05 | 1.04 | 1.06 | 1.01 | 0.997 | 0.957 | 1.03 | 1.02 | 1.04 | 1.04 | 1.09
5 | Cn1cc(C2=C(c3cn(C4CCN(Cc5ccccn5)CC4)c4ccccc34)C(=O)NC2=O)c2ccccc21 | 1.59 | 1.74 | 1.53 | 1.45 | 1.27 | 1.01 | 1.17 | 1.49 | 1.04 | 0.926 | 0.97 | 0.921 | 0.943 | 0.978 | 0.985 | 0.942 | 0.904 | 0.952
6 | CC(C)(C)c1cc(C=C(C#N)C#N)cc(C(C)(C)C)c1O [Tyrphostin 9] | 0.716 | 0.916 | 0.133 | 0.745 | 0.966 | 0.316 | 0.772 | 0.883 | 0.223 | 1.21 | 0.993 | 0.822 | 1.22 | 1.05 | 0.769 | 1.09 | 0.95 | 0.699
7 | CC(O)(CS(=O)(=O)c1ccc(F)cc1)C(=O)Nc1ccc(C#N)c(C(F)(F)F)c1 (stereo unspecified) [Bicalutamide (Casodex)] | 1.11 | 1.04 | 1.13 | 0.855 | 1.19 | 1.2 | 1.15 | 1.06 | 1.05 | 1.02 | 0.986 | 0.695 | 1.02 | 0.985 | 0.925 | 1.12 | 0.995 | 0.993
8 | Cc1ccccc1-n1c(Cn2ncc3c(N)ncnc32)nc2cccc(C)c2c1=O | 1.08 | 0.98 | 1.18 | 1.69 | 1.22 | 1.05 | 0.894 | 1.09 | 0.962 | 1.12 | 1.03 | 0.846 | 1.06 | 1.03 | 0.685 | 0.989 | 1.09 | 0.983
9 | COC[C@H]1OC(=O)c2coc3c2[C@@]1(C)C1=C(C3=O)[C@@H]2CCC(=O)[C@@]2(C)C[C@H]1OC(C)=O [Wortmannin] | 1.21 | 1.18 | 0.765 | 1.24 | 1.07 | 1.2 | 1.29 | 1.17 | 0.855 | 1.02 | 0.976 | 0.962 | 1.01 | 1.09 | 0.879 | 1.06 | 1.04 | 0.925
10 | Cn1c(CCCC(=O)O)nc2cc(N(CCCl)CCCl)ccc21 [Bendamustine HCL] | 0.931 | 0.993 | 1.07 | 0.99 | 1.11 | 1.19 | 1.02 | 1.12 | 1.05 | 0.978 | 1.01 | 0.968 | 0.991 | 0.939 | 0.962 | 0.966 | 0.989 | 1
11 | O=c1[nH]c2ccc(Cl)cc2c(N[C@@H]2CN3CCC2CC3)c1-c1nc2ccccc2[nH]1 | 0.824 | 0.413 | 0.00479 | 0.874 | 0.483 | 0.0444 | 0.999 | 0.427 | 0.0117 | 1.14 | 1.3 | 0.361 | 1.27 | 1.38 | 0.28 | 1.2 | 1.3 | 0.0506
12 | CN[C@@H]1C[C@H]2O[C@@](C)([C@@H]1OC)n1c3ccccc3c3c4c(c5c6ccccc6n2c5c31)C(=O)NC4 [Staurosporine] | -0.0139 | -0.127 | -0.13 | -0.00682 | -0.0511 | -0.0599 | -0.0405 | -0.121 | -0.102 | 1.27 | 1.17 | 0.801 | 1.22 | 1.06 | 0.878 | 1.08 | 1.06 | 0.687
13 | COc1ccc(C(=O)N2CCCC2=O)cc1 [Aniracetam] | 1.02 | 1.13 | 1.08 | 1.19 | 1.17 | 1.1 | 1.15 | 1.31 | 1.06 | 1.06 | 1.04 | 1.01 | 1.02 | 1.02 | 1.03 | 1.1 | 1.01 | 1.04
14 | CCN1CCN(C(=O)Cc2ccc(Nc3ncc(F)c(Nc4ccc(C(=O)Nc5ccccc5Cl)cc4)n3)cc2)CC1 [Aurora A Inhibitor I] | 1.18 | 1.01 | -0.246 | 2.26 | 0.982 | -0.139 | 0.971 | 0.897 | -0.177 | 1.15 | 1.06 | 0.581 | 1.13 | 0.963 | 0.566 | 0.987 | 1.06 | 0.607
15 | C=C1C[C@@H]2[C@H](CC[C@]3(C)C(=O)CC[C@@H]23)[C@@]2(C)C=CC(=O)C=C12 [Exemestane] | 0.999 | 1.11 | 1.13 | 1.16 | 1.17 | 1.29 | 1.08 | 1.12 | 1.13 | 1.07 | 1.02 | 0.988 | 1.04 | 1.06 | 1 | 1.08 | 1.06 | 1.1
16 | COc1ccc2c(c1)/C(=C/c1cnc[nH]1)C(=O)N2 | 1.22 | 1.85 | 0.847 | 0.785 | 0.716 | 0.377 | 0.729 | 0.772 | 0.514 | 0.62 | 0.488 | 0.444 | 0.602 | 0.477 | 0.397 | 0.746 | 0.674 | 0.602
17 | CC(C)(C)c1cc(C=C(C#N)C#N)cc(Br)c1O | 1.17 | 1.18 | 1.48 | 1.4 | 1.04 | 1.23 | 1.06 | 1.22 | 1.27 | 1.07 | 1.07 | 0.897 | 1.17 | 1.07 | 0.933 | 1.01 | 1.09 | 0.874

As entered above:
cell viability ([5]; 0.05 µM) with COc1ccc(N(C(=O)Oc2c(C)cccc2C)c2ccnc(Nc3ccc(N4CCN(C)CC4)cc3)n2)c(OC)c1 is entered as 0.86
cell viability ([5]; 5 µM) with Cn1cc(C2=C(c3cn(C4CCN(Cc5ccccn5)CC4)c4ccccc34)C(=O)NC2=O)c2ccccc21 is entered as 0.985

Source: the supplement of paper PMC9454738
